In article PMC11719849, “Allosteric modulation of the Lon protease via ssDNA binding and local charge changes” (The Journal of Biological Chemistry, 2024):
The exact form of at least one protein or probe is not confirmed. For some assays here: Weaker means in comparison with the reference protein, sequence or condition of that experiment. At least one verdict was read from the data and is not stated in words by the source.

Amino acid sequences for entries named in this document (tags omitted). A change or cut given only in a name is not applied to a line headed by its entry.
UniProt P0CAW0: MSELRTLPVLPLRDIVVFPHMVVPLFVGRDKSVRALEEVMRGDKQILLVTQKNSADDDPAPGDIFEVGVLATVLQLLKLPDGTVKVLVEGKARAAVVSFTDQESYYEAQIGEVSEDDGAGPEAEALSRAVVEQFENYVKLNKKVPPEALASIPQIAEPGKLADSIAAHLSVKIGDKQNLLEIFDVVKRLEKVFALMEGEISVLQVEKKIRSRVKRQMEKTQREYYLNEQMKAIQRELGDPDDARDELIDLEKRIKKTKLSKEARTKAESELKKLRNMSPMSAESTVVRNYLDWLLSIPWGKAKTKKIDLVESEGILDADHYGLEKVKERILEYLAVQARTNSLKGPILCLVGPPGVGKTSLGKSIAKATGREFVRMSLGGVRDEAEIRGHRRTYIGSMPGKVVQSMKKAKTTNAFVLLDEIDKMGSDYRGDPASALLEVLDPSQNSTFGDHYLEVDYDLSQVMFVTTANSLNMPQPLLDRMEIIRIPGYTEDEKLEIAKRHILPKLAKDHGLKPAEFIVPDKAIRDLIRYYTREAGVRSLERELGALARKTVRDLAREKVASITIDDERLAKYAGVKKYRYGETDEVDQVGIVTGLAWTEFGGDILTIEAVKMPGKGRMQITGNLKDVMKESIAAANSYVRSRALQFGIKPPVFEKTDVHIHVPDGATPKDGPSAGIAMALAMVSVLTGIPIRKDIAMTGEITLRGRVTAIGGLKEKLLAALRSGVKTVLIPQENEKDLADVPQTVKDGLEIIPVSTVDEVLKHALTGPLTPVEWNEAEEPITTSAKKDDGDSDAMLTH

How the values were obtained:
[1] = target: Lon (wild type) (Caulobacter crescentus) (UniProt P0CAW0); assay: fluorescence polarization; settings: 0.1 uM Lon6, 25 nM FAM-ssDNA; FP: 25 mM HEPES pH 7.5, 10 mM MgCl2, 100 mM KCl, 0.05% Tween-20, 30 C, 0.1 uM Lon (hexamer), 25 nM DNA; mass photometry in TK buffer, 200 nM Lon monomer; recombinant protein; label: FAM (printed at 5' side); single-stranded DNA
[2] = target: Lon (wild type) (Caulobacter crescentus) (UniProt P0CAW0); assay: competition with a labelled probe; settings: unlabeled dsDNA competitor vs FAM-ssDNA, weaker than ssDNA; recombinant protein

Row | Sequence | binding result [1] | binding result [2]
1 | AACGGATGATCCACAGGAGAGTCTGGCGCAGGGCGAGAG [FAM-ssDNA (G1Box top strand)] | binds | 
2 | AACGGATGATCCACAGGAGAGTCTGGCGCAGGGCGAGAG (double strand) [G1Box dsDNA] |  | binds more weakly
